# According to patent publication US20240217960A1, “TRIAZINE DERIVATIVE AS COVALENT INHIBITORS OF PI3K” (UNIVERSITÄT BASEL, priority 2021, published 2024):
# Assay: Intrinsic reactivity of the inhibitors (kchem) with βME measured with HPLC
# Assay type: physicochemical
# Conditions: for reactivity with βME (kchem not reliably determinable): 12 M βME
structure (smiles),measurement,setting,value
"C=CC(=O)CCCCC(=O)N1CCN(c2nc(-c3cnc(N)nc3C(F)F)nc(N3CCOCC3)n2)CC1 [Compound 1, 1-(4-(4-(2-amino-4-(difluoromethyl)pyrimidin-5-yl)-6-morpholino-1,3,5-triazin-2-yl)piperazin-1-yl)oct-7-ene-1,6-dione]",reaction with βME (kchem not reliably determinable),1 mM βME,too rapidly completed reaction
"CC(C)=CC(=O)NCCCC(=O)N1CCN(c2nc(-c3cnc(N)nc3C(F)F)nc(N3CCOCC3)n2)CC1 [Compound 17, N-(4-(4-(4-(2-amino-4-(difluoromethyl)pyrimidin-5-yl)-6-morpholino-1,3,5-triazin-2-yl)piperazin-1-yl)-4-oxobutyl)-3-methylbut-2-enamide]",reactivity with βME (kchem not reliably determinable),,lack of reactivity
"CC(C)=CC(=O)N(C)CCCC(=O)N1CCN(c2nc(-c3cnc(N)nc3C(F)F)nc(N3CCOCC3)n2)CC1 [Compound 11, N-(4-(4-(4-(2-amino-4-(difluoromethyl)pyrimidin-5-yl)-6-morpholino-1,3,5-triazin-2-yl)piperazin-1-yl)-4-oxobutyl)-N,3-dimethylbut-2-enamide]",reactivity with βME (kchem not reliably determinable),,lack of reactivity
